Article PMC5807052, “Robo1 Forms a Compact Dimer-of-Dimers Assembly” (Structure(London, England:1993), 2018)
No constants are given. Whether binding was seen depends on the method and setting. For part of these data: Binding seen in cells or lysates may run through a third protein. Some entries that bind do so weakly or less than the wild type.

Sequences of proteins named here, by UniProt entry; tags and fusion partners are left off. A change or cut given only in a name is not applied to a line headed by its entry. Residues count along the entry.
UniProt Q9Y6N7: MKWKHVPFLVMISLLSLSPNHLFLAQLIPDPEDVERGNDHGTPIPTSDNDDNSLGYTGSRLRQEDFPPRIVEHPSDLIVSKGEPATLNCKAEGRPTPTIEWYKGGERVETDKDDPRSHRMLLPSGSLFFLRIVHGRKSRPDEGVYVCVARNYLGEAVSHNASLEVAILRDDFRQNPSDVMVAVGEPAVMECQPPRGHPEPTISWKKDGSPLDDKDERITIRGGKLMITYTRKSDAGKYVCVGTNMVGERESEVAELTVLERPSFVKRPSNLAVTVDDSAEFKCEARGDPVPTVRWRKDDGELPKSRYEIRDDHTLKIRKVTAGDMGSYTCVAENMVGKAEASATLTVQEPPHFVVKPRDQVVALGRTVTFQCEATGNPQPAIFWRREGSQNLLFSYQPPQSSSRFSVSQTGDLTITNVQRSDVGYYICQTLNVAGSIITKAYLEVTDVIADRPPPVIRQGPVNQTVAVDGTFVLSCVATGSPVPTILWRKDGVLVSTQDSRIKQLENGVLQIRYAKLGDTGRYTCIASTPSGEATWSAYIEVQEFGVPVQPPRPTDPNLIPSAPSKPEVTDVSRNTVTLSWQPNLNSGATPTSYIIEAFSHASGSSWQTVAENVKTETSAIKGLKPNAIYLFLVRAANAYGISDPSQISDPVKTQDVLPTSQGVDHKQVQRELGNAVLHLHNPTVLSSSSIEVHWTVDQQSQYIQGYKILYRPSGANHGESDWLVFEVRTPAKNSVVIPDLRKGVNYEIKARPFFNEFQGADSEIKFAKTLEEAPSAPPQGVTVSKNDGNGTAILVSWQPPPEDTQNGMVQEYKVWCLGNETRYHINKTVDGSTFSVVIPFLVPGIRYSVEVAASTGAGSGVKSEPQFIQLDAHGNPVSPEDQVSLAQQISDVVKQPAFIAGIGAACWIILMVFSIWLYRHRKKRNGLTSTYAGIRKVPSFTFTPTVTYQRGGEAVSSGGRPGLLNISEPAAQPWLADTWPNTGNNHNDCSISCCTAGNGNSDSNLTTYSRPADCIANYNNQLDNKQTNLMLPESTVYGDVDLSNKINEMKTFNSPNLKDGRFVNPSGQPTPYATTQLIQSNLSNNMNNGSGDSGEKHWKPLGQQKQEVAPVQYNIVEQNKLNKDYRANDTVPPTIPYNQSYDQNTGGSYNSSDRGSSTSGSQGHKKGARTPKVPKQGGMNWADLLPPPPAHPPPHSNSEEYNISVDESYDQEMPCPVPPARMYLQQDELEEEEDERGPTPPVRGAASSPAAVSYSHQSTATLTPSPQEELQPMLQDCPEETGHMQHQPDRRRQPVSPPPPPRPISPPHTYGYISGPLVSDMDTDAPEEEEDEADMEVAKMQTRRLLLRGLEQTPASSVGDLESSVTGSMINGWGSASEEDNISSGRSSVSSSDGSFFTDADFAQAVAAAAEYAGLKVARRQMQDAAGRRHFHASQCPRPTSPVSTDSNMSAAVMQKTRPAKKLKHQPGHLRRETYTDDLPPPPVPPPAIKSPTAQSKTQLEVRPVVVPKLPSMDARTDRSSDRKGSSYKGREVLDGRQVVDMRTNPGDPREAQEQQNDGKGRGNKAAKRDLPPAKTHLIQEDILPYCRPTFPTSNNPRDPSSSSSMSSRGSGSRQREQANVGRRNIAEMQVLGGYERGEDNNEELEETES
Full length Robo1 (residues 1-1651), as Robo1-EGFP and Robo1-mCherry: residues 26-1651 of Q9Y6N7
Robo1 Ig1-5 (human Robo1 residues 61-543): residues 61-543 of Q9Y6N7
Robo1 Ig1-4 (human Robo1 residues 61-446): residues 61-446 of Q9Y6N7

Legend:
[1] = target: Full length Robo1 (residues 1-1651), as Robo1-EGFP and Robo1-mCherry (human) (UniProt Q9Y6N7); assay: proximity ligation; HEK-293T co-transfected with Robo1-EGFP and Robo1-mCherry; fixed, permeabilised; anti-GFP JL-8 and anti-DsRed antibodies, DuoLink II; cells treated with PBS or 0.1 uM mouse Slit2-N for 30 min
[2] = target: Robo1 Ig1-5 (human Robo1 residues 61-543) (human) (UniProt Q9Y6N7); assay: SAXS; EMBL X33 beamline, 1 to 4 mg/mL, 10 °C; data at the lowest concentrations used; both purified
[3] = target: Robo1 Ig1-4 (human Robo1 residues 61-446) (human) (UniProt Q9Y6N7); assay: as above

## Full length Robo1 (residues 1-1651), as Robo1-EGFP and Robo1-mCherry (from UniProt Q9Y6N7-1 26-1651) (receptor)
[1]
  binding: binds

## Robo1 Ig1-5 (human Robo1 residues 61-543) (from UniProt Q9Y6N7-1 61-543) (domain or fragment)
[2]
  binding: no binding (tested: 1 to 4 mg/mL)

## Robo1 Ig1-4 (human Robo1 residues 61-446) (from UniProt Q9Y6N7-1 61-446) (domain or fragment)
[3]
  binding: no binding (tested: 1 to 4 mg/mL)
